Laboratory results taken from PubChem BioAssay AID493014 (National Center for Advancing Translational Sciences (NCATS), 2011).
The list shows a part of the results. These are further read-outs of the screen, such as a control signal, another cell line or another target. No call is given for them. Compounds called inactive in the main read-out are mostly missing here. Words in brackets tell the shape of the fitted curve; partial curves, single points and poor fits give uncertain potencies.

Assay: qHTS Assay to Find Inhibitors of Chronic Active B-Cell Receptor Signaling
Details: ABC-DLBCL IkBa-CBG/CBR reporter, luminescence ratio (green luciferase fused to IkBa over red control in TMD8 lymphoma cells), 4 h
Outline: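 TMD8 human ABC-DLBCL cells with doxycycline-inducible IκBα–green luciferase fusion and unfused red luciferase, in 0.5% FBS medium; compounds up to 46 uM, 4 h at 37C. Green/red luminescence ratio, filter-overlap corrected, fitted to concentration-response curves.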

[1] = measured here: CBR red luminescence, cell number
[2] = measured here: IkBa-CBG green luminescence

| Structure (SMILES) | AC50 [1] | AC50 [2] |
| --- | --- | --- |
| CC(C)c1ccc(C2=CC(c3cccc(Cl)c3)n3c(nc4ccccc43)N2)cc1 (configuration not stated) | 35.5 µM [falling, single point] |  |
| C/C(O)=C/c1nc2ccccc2[nH]c1=O | 23.1 µM [rising, single point] |  |
| COc1cccc(CC(=O)OCC(=O)NC2(C#N)CCCC2)c1 |  | 32.6 µM [falling, partial curve, poor fit] |
| COc1ccccc1C(=O)N/C(=C\c1ccc2c(c1)OCO2)C(=O)NCCc1nc2ccccc2[nH]1 | 16.4 µM [falling, partial curve] |  |
| C/C(N)=C(/C#N)C(=O)CSc1nc2ccccc2c(=O)n1-c1ccc(C)c(Cl)c1 | 16.4 µM [falling, single point] |  |
| O=c1c2cc(Cl)ccc2nc(-c2ccccc2)n1O | 7.94 µM [falling, partial curve, poor fit] |  |
| COc1ccc2c(c1)O[C@@H](c1cccc(C(F)(F)F)c1)[C@H](OC(=O)Nc1ccc(OC(F)F)cc1)C2=O | 14.6 µM [rising, single point] |  |
| O=[N+]([O-])c1ccccc1S(=O)(=O)Oc1ccc(C(=S)N2CCOCC2)cc1 | 4.11 µM [rising, single point] |  |
| CC(C)N1C/C(=C/c2cccnc2)C(=O)/C(=C/c2cccnc2)C1 | 20.6 µM [falling, single point] |  |
| CC(C)(C)SCCNS(=O)(=O)c1ccc2ccccc2c1 | 11.6 µM [rising, partial curve, poor fit] |  |
| CCOC(=O)c1csc(NC(=O)C2CCCCC2)n1 | 14.6 µM [falling, single point] | 5.17 µM [rising, full curve, poor fit] |
| Cc1ccc(S(=O)(=O)N(CC(=O)N/N=C/c2ccco2)c2cc(Cl)cc(Cl)c2)cc1 | 2.06 µM [falling, partial curve, poor fit] | 23.1 µM [rising, partial curve, poor fit] |
| C[C@H](CO)N1C[C@H](C)[C@@H](CN(C)Cc2ccccc2)Oc2ccc(NC(=O)Cn3cnnn3)cc2C1=O | 32.6 µM [rising, partial curve, poor fit] |  |
| OCCNc1nc(-c2ccccc2)c2ccccc2n1 | 7.08 µM [rising, partial curve, poor fit] |  |
| CCc1ccc2[nH]c(=O)c(CN(CCN(CC)CC)C(=S)NCc3ccco3)cc2c1 | 3.98 µM [falling, partial curve, poor fit] |  |
| CCCS(=O)(=O)Nc1ccc2cn[nH]c2c1 | 25.1 µM [falling, single point] |  |
| CCN(CC)S(=O)(=O)c1cccc(C(=O)Nc2ccc3c(c2)OCO3)c1 | 1.41 µM [falling, partial curve, poor fit] |  |
| CN=c1scc(-c2ccco2)n1/N=C/c1ccc(O)c(O)c1 | 35.5 µM [falling, single point] |  |
| C=C(C)C(=O)Oc1ccc(N2C(=O)[C@@H]3C4C=CC(C4)[C@@H]3C2=O)cc1 | 35.5 µM [falling, single point] |  |
| O=C(c1ccc(CS(=O)(=O)c2ccc(Br)cc2)o1)N1CCCC1 | 0.517 µM [falling, full curve] |  |
| O=C(NCc1ccccc1)C1CCN(C(=O)NCc2ccccc2)CC1 | 5.62 µM [rising, single point] |  |

Quoted from the listing.
Under AC50 [1], `CCN(CC)S(=O)(=O)c1cccc(C(=O)Nc2ccc3c(c2)OCO3)c1` has 1.41 µM [falling, partial curve, poor fit]
Under AC50 [1], `C[C@H](CO)N1C[C@H](C)[C@@H](CN(C)Cc2ccccc2)Oc2ccc(NC(=O)Cn3cnnn3)cc2C1=O` has 32.6 µM [rising, partial curve, poor fit]
Under AC50 [1], `O=C(c1ccc(CS(=O)(=O)c2ccc(Br)cc2)o1)N1CCCC1` has 0.517 µM [falling, full curve]
Under AC50 [1], `O=C(NCc1ccccc1)C1CCN(C(=O)NCc2ccccc2)CC1` has 5.62 µM [rising, single point]
Under AC50 [2], `Cc1ccc(S(=O)(=O)N(CC(=O)N/N=C/c2ccco2)c2cc(Cl)cc(Cl)c2)cc1` has 23.1 µM [rising, partial curve, poor fit]

Remaining list, next part.

| Structure (SMILES) | AC50 [1] | AC50 [2] |
| --- | --- | --- |
| CC(=O)CCS(=O)(=O)c1ccc(NC(C)=O)cc1 | 18.4 µM [falling, single point] |  |
| O=C1NN=C(c2ccccc2)CC1c1c[nH]c2ccccc12 (configuration not stated) | 2.24 µM [falling, full curve, poor fit] |  |
| C[C@H]1COC(=O)[C@@H](Cc2ccc(F)cc2)C/C=C\C[C@@H](CC(=O)NCCO)C(=O)N1 | 6.51 µM [falling, single point] |  |
| N#C/C(=C\c1ccc(O)cc1)c1nc2ccccc2o1 | 35.5 µM [falling, single point] |  |
| Clc1cccc(Cl)c1/C=C/c1ccn[nH]1 | 22.4 µM [rising, partial curve, poor fit] |  |
| OC(c1ccccc1)c1nc2ccccc2[nH]1 (configuration not stated) | 11.2 µM [rising, partial curve] |  |
| O=C(COC(=O)c1c2c(nc3ccccc13)/C(=C/c1cccc([N+](=O)[O-])c1)CCC2)NC1CCS(=O)(=O)C1 (configuration not stated) |  | 20.6 µM [rising, partial curve, poor fit] |
| O=C(Nc1cccc(-c2nc3ncccc3o2)c1)c1sc2cc(Cl)ccc2c1Cl | 10 µM [rising, partial curve] |  |
| COc1ccc(C=O)cc1OS(=O)(=O)c1ccc(NC(C)=O)cc1 |  | 11.6 µM [falling, partial curve] |
| CC(OC(=O)C1CC1)C(=O)Nc1ccc([N+](=O)[O-])cc1Cl (configuration not stated) | 35.5 µM [rising, partial curve, poor fit] |  |
| COc1ccc(S(=O)(=O)Nc2nc3ccccc3s2)cc1 | 29.1 µM [rising, single point] |  |
| Cc1cc(C)cc(NC(=O)N2CCNC(=O)C2CC(=O)Nc2cc(Cl)ccc2Cl)c1 (configuration not stated) | 35.5 µM [falling, single point] |  |
| CC(C)(C)N(Cc1cc2ccccc2[nH]c1=O)C(=O)C1CCCCC1 | 6.51 µM [falling, single point] |  |
| CCOC(=O)Nc1nc(-c2ccccc2)c(C(=O)c2ccc(Cl)cc2)s1 | 16.4 µM [rising, partial curve] |  |
| COCCNC(=O)C(c1ccncc1)N(C(=O)Cn1nnc2ccccc21)c1ccc(OC)cc1 (configuration not stated) | 1.84 µM [falling, partial curve, poor fit] |  |
| O=C(Nc1ccc(F)cc1)Nc1cc(S(=O)(=O)N2CCOCC2)ccc1N1CCCC1 | 17.8 µM [rising, single point] |  |
| N#C/C(=N/O)c1nc(-c2ccc(F)cc2)cs1 | 3.66 µM [rising, full curve, poor fit] |  |
| Cn1c(=O)oc2cc(S(=O)(=O)Nc3ccc4c(c3)OCO4)ccc21 | 15.8 µM [falling, single point] |  |
| Cc1c(C)c(C)c(CN2CCCC2)c(C)c1C | 3.16 µM [rising, full curve, poor fit] |  |
| COC(=O)CC1COc2ccccc2N1S(=O)(=O)c1ccc(OC)cc1 (configuration not stated) | 25.1 µM [rising, single point] |  |
| Cc1cccn2c(=O)c3cc(C#N)c(=NC(=O)c4ccco4)n(Cc4ccco4)c3nc12 | 1.58 µM [falling, partial curve, poor fit] | 2.51 µM [rising, full curve, poor fit] |

| Structure (SMILES) | AC50 [1] | AC50 [2] |
| --- | --- | --- |
| O=C(/C=C/c1ccccc1)NC1CCSC1=O (configuration not stated) | 18.4 µM [falling, single point] |  |
| O=C(CSc1ccsc1[N+](=O)[O-])Nc1cc(F)ccc1F | 0.794 µM [falling, full curve, poor fit] |  |
| O=C(CSc1nnnn1C1CCCC1)N1CCCc2ccccc21 | 18.4 µM [rising, partial curve, poor fit] |  |
| Cc1nc(NC(=O)CSC2=NCCS2)sc1C(=O)N(C)C | 7.94 µM [rising, full curve, poor fit] |  |
| Cc1ccc(OCC(=O)Nc2ccc(-c3nc4ncccc4o3)cc2)c(C)c1 | 6.51 µM [rising, partial curve, poor fit] |  |
| CCC(=O)Nc1ccc2c(c1)nc1n2CCSC1 | 22.4 µM [rising, partial curve, poor fit] |  |
| CCCc1c(C)nc2ccccc2c1SCCC#N | 25.9 µM [falling, single point] |  |
| NC(=S)N=Nc1c(O)n(CCCl)c2ccc(Br)cc12 | 14.1 µM [rising, partial curve, poor fit] | 7.08 µM [falling, partial curve] |
| Fc1ccc(COc2ccc(-c3nnco3)cc2)cc1 | 0.631 µM [rising, full curve, poor fit] |  |
| COc1cccc(/C=C2\C(=O)N(c3cccc(C)c3)C(=O)c3ccccc32)c1 | 29.1 µM [falling, single point] |  |
| COc1cc2c(cc1OC)C(C)N(C(=O)Nc1cc(C)cc(C)c1)CC2 (configuration not stated) | 11.2 µM [rising, single point] |  |
| Cc1cccc(NS(=O)(=O)c2ccc(-c3cnc(C4CC4)o3)cc2)c1 | 12.6 µM [rising, single point] | 22.4 µM [falling, single point] |
| COc1cccc(NC(=O)c2cc(C(=O)Nc3cccc(OC)c3)n(C)n2)c1 | 29.1 µM [falling, single point] |  |
| Cc1ccsc1-c1nc(CN2C[C@@H](C)O[C@@H](C)C2)c(C)o1 | 35.5 µM [rising, single point] |  |
| COC(=O)c1cccnc1Oc1ccccc1 | 2.51 µM [rising, partial curve, poor fit] |  |
| CSCCC(NC(=O)c1ccc([N+](=O)[O-])cc1Cl)C(=O)OCC(=O)C12CC3CC(CC(C3)C1)C2 (configuration not stated) | 20.6 µM [falling, partial curve, poor fit] |  |
| CCc1ccc2nc(NC(=O)c3cc(C)on3)sc2c1 | 12.6 µM [falling, single point] |  |
| O=C(CCSc1ccc(Cl)cc1)c1ccco1 | 35.5 µM [falling, single point] |  |
| Cc1cc(C)cc(NC(=O)CCc2c(C)nn(-c3ccc(N4CCCCC4)nn3)c2C)c1 | 4.47 µM [rising, partial curve, poor fit] |  |
| Cc1cccc(Sc2c(C=O)c3ccccc3n2C)c1 | 1.78 µM [falling, partial curve, poor fit] |  |
